Assay results reported in PMC2837404, “The Human Polyoma JC Virus Agnoprotein Acts as a Viroporin” (PLoS Pathogens, 2010).
No constants are given. Whether binding was seen depends on the method and setting. Binding seen in cells or lysates may run through a third protein. Some results given as binding are weak or reduced against the parent protein; the word gives no strength. Where a sequence is shown, tags or fusion partners need not be part of it.

Biological target: JCV agnoprotein, epitope-tagged (Myc-tagged agnoprotein and Flag-tagged agnoprotein) (JC virus (JCV)) (UniProt P03086)
Assay: co-IP; 293T cells transfected with Myc-agnoprotein/Flag-agnoprotein, 72 h; lysed in TNE buffer (10 mM Tris-HCl pH 7.5, 150 mM NaCl, 5 mM EDTA, 10% glycerol, 1% Triton X-100); immunoprecipitation with anti-Flag antibody on protein G-Sepharose, 4 h at 4°C; immunoblot

B1: JCV agnoprotein expressed in JCV-infected SVG-A cells (natural protein)
chain: MVLRQLSRKASVKVSKTWSGTKKRAQRILIFLLEFLLDFCTGEDSVDGKKRQRHSGLTEQTYSALPEPKAT
notes: JC virus (JCV) agnoprotein made from the viral genome in infected cells; monomer about 8 kDa; The virus was prepared from JCI cells or JC virus-infected SVG-A cells; source: SVG-A cells infected with JCV for 1 week
binding: binds
